Construct, isoform or probe ends are uncertain for at least one entry. At least one verdict rests on a figure or table, not on a statement of the authors. Protein sequences can lack the tags named with them.
Biological target: T1, RuvA wild type (Escherichia coli) (UniProt P0A809)
T1 sequence (looked up): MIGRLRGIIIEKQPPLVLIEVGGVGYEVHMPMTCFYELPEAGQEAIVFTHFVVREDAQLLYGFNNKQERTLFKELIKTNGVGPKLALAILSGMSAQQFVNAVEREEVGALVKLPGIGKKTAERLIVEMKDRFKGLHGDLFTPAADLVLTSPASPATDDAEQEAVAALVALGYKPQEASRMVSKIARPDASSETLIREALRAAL
Test: EMSA
Conditions: 3 mM Mg2+, octamer complex; EMSA with ~4-5 ng labelled DNA; 5 mM EDTA (gel 0.5x TBE) or 3 mM MgCl2 without EDTA (gel 0.5x TB + 200 uM MgCl2); recombinant protein; residues 1-203; label: 5' IRD700 on S24 (IT.01); folded or branched DNA

“GACGCTGCCGAATTCTACCAGTGCCTTGCTAGGACATCTTTGCCCACCTGCAGGTTCACCC / TGGGTGAACCTGCAGGTGGGCAAAGATGTCCTAGCAATGTAATCGTCAAGCTTTATGCCGTT / CAACGGCATAAAGCTTGACGATTACATTGCTAGGACATGCTGTCTAGAGGATCCGACTATCGA / ATCGATAGTCGGATCCTCTAGACAGCATGTCCTAGCAAGGCACTGGTAGAATTCGGCAGCGT [X12 (synthetic Holliday junction)]”: binds.

Source: publication PMC2265524, “ruvA Mutants That Resolve Holliday Junctions but Do Not Reverse Replication Forks” (PLoS Genetics, 2008)
